Reference: the supplement of paper PMC5949888
Most values lie at the floor of the assay. Slopes are relative: functional sequences can read slightly below zero.

What follows are substances tested on Saccharomyces cerevisiae PS128 hsf1 delta, HSF1(1-493) fusion (assay: growth estimate (transactivation domain function in HSF1 fusion, heat-shock survival) (a.u. (slope of normalised read count over time)); higher = stronger growth at 37°C, i.e. more transactivation activity). Settings: library: random library.
RIAKVEQRYRH gave a growth estimate of -0.248. RIARITLKTMSVHMPEFT gave a growth estimate of less than -0.25. In the case of RIAT, the growth estimate is reported as less than -0.25. Work on RICKRVGVAS yielded a growth estimate of less than -0.25. Substance RICRRITNSNGRIRNLLSWA has a growth estimate of less than -0.25. RID was tested, and the growth estimate was less than -0.25. RIDAESCVG was tested, and the growth estimate was less than -0.25. RIDTLG showed a growth estimate of less than -0.25. With RIDVLVFDQGIVLRGL the growth estimate was less than -0.25. RIEYKARTTSLGCFTILDFK gave a growth estimate of less than -0.25. RIFN gave a growth estimate of -0.228. Substance RIFTEASIKRWSACFRWWGH has a growth estimate of less than -0.25. RIFVRERSRA gave a growth estimate of less than -0.25. Substance RIGIRMEGISHPIRYLHPIE has a growth estimate of less than -0.25. RIGPRHTPYMGASGISSVGG was tested, and the growth estimate was less than -0.25. Substance RIGSSARVGPTATVETDVFW has a growth estimate of less than -0.25. RIGWGCIGIRCDAAVC was tested, and the growth estimate was less than -0.25. Work on RIIAGTGPPGRRWLAVPYVE yielded a growth estimate of less than -0.25. RIIAHVVYNSDPANGCQLAR showed a growth estimate of less than -0.25. RIIAPEGR was tested, and the growth estimate was less than -0.25. Work on RIIGLRRKSPGLFS yielded a growth estimate of less than -0.25. Substance RIKDGKVRACAGVDTHV has a growth estimate of less than -0.25. Work on RIKGGGLSCDW yielded a growth estimate of less than -0.25. In the case of RIKGRP, the growth estimate is reported as less than -0.25. RIKGVVELCVVGVKGTIRPT showed a growth estimate of less than -0.25. In the case of RIKTVDTVTCIRAVCTT, the growth estimate is reported as less than -0.25. With RILAMPNLGTHNFDR the growth estimate was less than -0.25. For RILASPVASV, the growth estimate was less than -0.25. With RILMGSLNSILGSITSLLGP the growth estimate was less than -0.25. Work on RIMFCSPLWFLVLYHGSKSE yielded a growth estimate of less than -0.25. RINWPYVFRRLWALSTGNFV gave a growth estimate of less than -0.25. With RIPARRINAHRTDPLG the growth estimate was less than -0.25. In the case of RIPGGNPRLLYEFNRVLDLF, the growth estimate is reported as less than -0.25. For RIPLGLLSYSVLNINKTSPD, the growth estimate was less than -0.25. Work on RIPLGTSAIPGPVRL yielded a growth estimate of less than -0.25. RIPRG gave a growth estimate of less than -0.25. Work on RIPRR yielded a growth estimate of -0.25. RIQVRT showed a growth estimate of less than -0.25. With RIRCGPVASKRTAR the growth estimate was less than -0.25. Work on RIREYGTMWSRRVAKANAGV yielded a growth estimate of less than -0.25. RIRIPSSLIHNLLVCS showed a growth estimate of less than -0.25. With RIRLMNGASYAS the growth estimate was less than -0.25. RISAILNRTVG gave a growth estimate of less than -0.25. In the case of RISDQSRDRQQFIRSWRYRG, the growth estimate is reported as less than -0.25. Work on RISESPS yielded a growth estimate of -0.245. RISGKG showed a growth estimate of less than -0.25. For RISKGWRSHHLRGRVRLMGC, the growth estimate was less than -0.25. Work on RISRCC yielded a growth estimate of less than -0.25. Substance RITHSSAIWSCQAPGPWTSR has a growth estimate of less than -0.25. For RITITTRQPSPLAPKFTTIP, the growth estimate was less than -0.25. RITM showed a growth estimate of less than -0.25. Work on RITTRLAIFRSNKRISFA yielded a growth estimate of -0.199. Substance RIVNGCMGRWRNSRSSKVPS has a growth estimate of less than -0.25. Work on RIVTRRRAEGLVSENIPCLS yielded a growth estimate of less than -0.25. RIVVLGYVWWLAIVER was tested, and the growth estimate was less than -0.25. With RKAENSLRTWESSGCFPYYE the growth estimate was less than -0.25. In the case of RKAIANLIQYIPNHA, the growth estimate is reported as less than -0.25. With RKAVAPNDHSGRRNQTTLQQ the growth estimate was less than -0.25. Work on RKCPSTGHSD yielded a growth estimate of less than -0.25. Work on RKCSWCYCGSCL yielded a growth estimate of less than -0.25. RKDAYLST showed a growth estimate of less than -0.25. RKGKMSCFYPSRCETGHACI gave a growth estimate of less than -0.25. RKGSER showed a growth estimate of less than -0.25. RKGSVSL showed a growth estimate of less than -0.25. With RKHASNGGSCSYGLDNTMQR the growth estimate was less than -0.25. RKHSTTEPGDFRRPRHKISI showed a growth estimate of less than -0.25. Work on RKLILSQRGRKKDSLSPSPN yielded a growth estimate of less than -0.25. With RKLRHIEVSHPFSMVVHLHH the growth estimate was less than -0.25. For RKLSISYFTLQWATMRYLCA, the growth estimate was less than -0.25. In the case of RKPA, the growth estimate is reported as less than -0.25. RKPL was tested, and the growth estimate was less than -0.25. In the case of RKPPDRSLKVVAIGSVSVRR, the growth estimate is reported as less than -0.25. Work on RKREGRLWPQ yielded a growth estimate of less than -0.25. In the case of RKRHPSLPL, the growth estimate is reported as less than -0.25. Work on RKRMFGPSILIPMRY yielded a growth estimate of less than -0.25. For RKRMGVYSKRIISRYSRGLT, the growth estimate was less than -0.25. With RKRNADG the growth estimate was less than -0.25. RKRTVSARPAPFQKFDGLME was tested, and the growth estimate was less than -0.25. Substance RKS has a growth estimate of less than -0.25. For RKSASTVLSRRVRARMFTRF, the growth estimate was less than -0.25. RKSKMYAGPRTARICPTDER gave a growth estimate of less than -0.25. RKSPAVSRPVLTDARSIGIP gave a growth estimate of less than -0.25. Work on RKSWGA yielded a growth estimate of less than -0.25. For RKTCTRSSKSTPG, the growth estimate was less than -0.25. RKTRF gave a growth estimate of less than -0.25. RKVFSNWAVNARNRLIETLF gave a growth estimate of less than -0.25. Substance RKVQQRCSSSKAGTV has a growth estimate of less than -0.25. RKWILNNATWADTGRYRCRW showed a growth estimate of less than -0.25. In the case of RKYGYTTMSFKEY, the growth estimate is reported as less than -0.25. Work on RKYPYFTTSFRIRPK yielded a growth estimate of less than -0.25. RKYQYFCRGFGEVHHLCNAS was tested, and the growth estimate was less than -0.25. With RLALP the growth estimate was less than -0.25. RLALPVTLTI gave a growth estimate of less than -0.25. With RLAPAVASVPEWIRSQDLKC the growth estimate was less than -0.25. With RLARAVVSLVVCPNPGSTGL the growth estimate was less than -0.25. For RLCDAAGIADEIVHESSRKR, the growth estimate was less than -0.25. Substance RLCVRRSIPHRFSTETIMMA has a growth estimate of less than -0.25. For RLDGARSRTRWPFRVYNYST, the growth estimate was less than -0.25.
